Test results published in paper PMC12581312, “Lung endothelial PEAR1 induces tumor cell dormancy” (Molecular Cancer, 2025).
No constants are given. Whether binding was seen depends on the method and setting. Binding calls can cover weak binding; strength is not graded here. Sequences can lack the tags named with a protein.

Sequences of proteins named here, by UniProt entry; tags and fusion partners are left off. A change or cut given only in a name is not applied to a line headed by its entry.
UniProt P07339: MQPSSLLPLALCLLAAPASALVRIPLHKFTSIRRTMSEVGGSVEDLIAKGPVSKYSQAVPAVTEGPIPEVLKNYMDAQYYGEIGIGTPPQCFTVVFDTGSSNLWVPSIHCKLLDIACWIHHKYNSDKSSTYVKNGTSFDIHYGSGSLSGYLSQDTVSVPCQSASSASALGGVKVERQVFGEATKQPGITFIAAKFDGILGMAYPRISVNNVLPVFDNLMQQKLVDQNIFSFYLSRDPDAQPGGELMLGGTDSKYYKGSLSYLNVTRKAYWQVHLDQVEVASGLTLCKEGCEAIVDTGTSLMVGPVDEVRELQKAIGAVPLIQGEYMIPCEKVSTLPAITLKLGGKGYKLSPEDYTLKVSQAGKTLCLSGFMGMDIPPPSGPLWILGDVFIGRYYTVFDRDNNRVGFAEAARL

Target: T1, Human recombinant PEAR1 extracellular part (platelet and endothelial aggregation receptor 1), His-tagged (human) (UniProt Q5VY43)
T1 sequence: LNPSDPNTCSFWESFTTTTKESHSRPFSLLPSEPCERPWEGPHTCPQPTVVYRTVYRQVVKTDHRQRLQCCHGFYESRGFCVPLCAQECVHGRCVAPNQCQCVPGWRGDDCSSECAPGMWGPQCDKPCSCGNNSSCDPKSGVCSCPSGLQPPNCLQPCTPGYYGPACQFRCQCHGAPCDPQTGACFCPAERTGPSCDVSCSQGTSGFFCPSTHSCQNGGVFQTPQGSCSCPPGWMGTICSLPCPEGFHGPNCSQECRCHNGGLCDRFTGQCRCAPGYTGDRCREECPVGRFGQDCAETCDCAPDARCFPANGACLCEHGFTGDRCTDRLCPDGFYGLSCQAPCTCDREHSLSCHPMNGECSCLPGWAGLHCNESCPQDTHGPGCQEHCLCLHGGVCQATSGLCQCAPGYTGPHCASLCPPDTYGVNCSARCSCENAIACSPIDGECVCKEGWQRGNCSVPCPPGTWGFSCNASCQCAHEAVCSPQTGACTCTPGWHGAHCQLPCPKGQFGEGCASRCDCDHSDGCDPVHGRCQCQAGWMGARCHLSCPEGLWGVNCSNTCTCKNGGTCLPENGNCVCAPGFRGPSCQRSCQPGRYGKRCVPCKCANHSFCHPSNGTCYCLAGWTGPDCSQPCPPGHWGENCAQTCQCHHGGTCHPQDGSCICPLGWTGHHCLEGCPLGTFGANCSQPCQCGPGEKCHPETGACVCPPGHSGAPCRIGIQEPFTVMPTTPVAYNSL
Test: pull-down; recombinant human PEAR1 (100 nM) immobilised on Ni-NTA magnetic beads, incubated with 100 nM recombinant human CTSD, SEMA6D or LOXL2 in 50 mM NaH2PO4, 300 mM NaCl, 20 mM imidazole, pH 8.0, 1 h at room temperature; control Ni-NTA beads; immunoblotting; both purified

Recombinant human cathepsin D (CTSD) (from UniProt P07339) (enzyme)
binding: binds
